From patent US7220760B2, “Quinoline derivatives as CRTH2 antagonists” (Pfizer Inc., priority 2002, dated 2007)
pIC50: −log10 of the molar value. Some results were stated once for a whole list of compounds, not compound by compound.

Biological target: T1, CRTH2 (Homo sapiens, UniProt Q9Y5Y4)
T1 construct: expressed in transfected cells; host or cells: L1.2 cells (membrane preparation)
T1 sequence (Q9Y5Y4 1-395): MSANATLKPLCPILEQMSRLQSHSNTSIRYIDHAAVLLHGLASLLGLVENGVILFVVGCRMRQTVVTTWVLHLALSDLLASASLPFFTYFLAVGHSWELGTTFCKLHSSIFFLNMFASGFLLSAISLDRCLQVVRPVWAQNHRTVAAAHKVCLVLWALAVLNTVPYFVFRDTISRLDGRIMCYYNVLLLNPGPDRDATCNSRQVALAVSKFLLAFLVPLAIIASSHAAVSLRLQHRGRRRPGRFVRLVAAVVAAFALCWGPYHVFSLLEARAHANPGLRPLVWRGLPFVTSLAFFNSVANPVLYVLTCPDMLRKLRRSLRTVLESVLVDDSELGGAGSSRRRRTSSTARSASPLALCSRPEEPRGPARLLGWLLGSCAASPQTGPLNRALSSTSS
Test: Binding Test: competition with 3H-PGD2 for binding to CRTH2 (SPA, membranes)
Details: membranes from CRTH2-expressing L1.2 cells, 3H-PGD2 competition

CC(=O)N(C1CC1)[C@@H]1C[C@H](C)N(C(=O)c2cccnc2)c2ccccc21 (single isomer, unassigned) [Example 96, (+)-Cis-N-cyclopropyl-N-[2-methyl-1-(pyridine-3-carbonyl)-1,2,3,4-tetrahydroquinolin-4-yl]-acetamide]
pIC50: > 5.30

CC(=O)N(c1ccccc1)C1CC(C)N(C(=O)c2ccc(C(=O)N(C)C)s2)c2ccccc21 (centres unmarked) [Example 41, ci-5-[4-(Acetyl-phenyl-amino)-2-methyl-3,4-dihydro-2H-quinoline-1-carbonyl]-thiophene-2-carboxylic acid dimethylamide]
pIC50: > 5.30
